PubChem BioAssay AID652243 – Drosophila RNAi Screening Center, 2013
Screen: 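Fly genes required for human androgen receptor driven transcription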 (primary screen). Cells: Drosophila S2R+ cells. Knock-down reagent: long dsRNA against Drosophila genes. Duration: 72 h (48 h, then 24 h hormone). Treatment: synthetic androgen R1881 at 10 nM for 24 h. Read-out: 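Firefly light from an androgen-responsive reporter and Renilla control light per well, raw and unnormalised, for each of two replicates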. Reading the numbers: firefly reporter light: higher = more light from androgen-responsive reporter; Renilla control light: higher = more constitutive control signal (cell number, transfection). Rule for the call: 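Hit when the log firefly-to-Renilla ratio dropped or increased by a fixed fold versus the mean of GFP or LacZ controls across duplicate plates; lowering cut given as 1.5 and as 3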. Calls: active = hit: reporter lowered or raised; inactive = no hit.
The screen tested about 24,000 reagents; this is an unselected part of those that have a named target and a result. In the full data, 246 (1%) got an active call. 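Plates not normalised; calls are printed but the firefly/Renilla ratio behind them is not deposited; fold cut for lowering reported inconsistently.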 The raw values are shown without normalisation. The record does not give: the amount of reagent.

{"Target gene": "CG13721", "dsRNA": "DRSC08330", "firefly reporter light, replicate 1": 1.32e5, "firefly reporter light, replicate 2": 1.88e5, "Renilla control light, replicate 1": 2.35e6, "Renilla control light, replicate 2": 2.68e6, "Call": "inactive"}
{"Target gene": "dbf", "dsRNA": "DRSC02570", "firefly reporter light, replicate 1": 1.53e5, "firefly reporter light, replicate 2": 1.22e5, "Renilla control light, replicate 1": 1.11e6, "Renilla control light, replicate 2": 1.18e6, "Call": "inactive"}
{"Target gene": "dbf", "dsRNA": "DRSC27207", "firefly reporter light, replicate 1": 5.17e5, "firefly reporter light, replicate 2": 4.54e5, "Renilla control light, replicate 1": 6.80e5, "Renilla control light, replicate 2": 5.95e5, "Call": "inactive"}
{"Target gene": "CG34256", "dsRNA": "DRSC38833", "firefly reporter light, replicate 1": 8.57e5, "firefly reporter light, replicate 2": 8.36e5, "Renilla control light, replicate 1": 2.41e6, "Renilla control light, replicate 2": 2.20e6, "Call": "inactive"}
{"Target gene": "CG13082", "dsRNA": "DRSC02186", "firefly reporter light, replicate 1": 75480, "firefly reporter light, replicate 2": 92474, "Renilla control light, replicate 1": 1.26e6, "Renilla control light, replicate 2": 1.52e6, "Call": "inactive"}
{"Target gene": "CG13082", "dsRNA": "DRSC26734", "firefly reporter light, replicate 1": 3.68e5, "firefly reporter light, replicate 2": 4.26e5, "Renilla control light, replicate 1": 5.08e5, "Renilla control light, replicate 2": 5.48e5, "Call": "inactive"}
{"Target gene": "mRpL32", "dsRNA": "DRSC14479", "firefly reporter light, replicate 1": 2.80e5, "firefly reporter light, replicate 2": 2.03e5, "Renilla control light, replicate 1": 2.19e6, "Renilla control light, replicate 2": 2.57e6, "Call": "inactive"}
{"Target gene": "Osi8", "dsRNA": "DRSC12277", "firefly reporter light, replicate 1": 1.02e5, "firefly reporter light, replicate 2": 91095, "Renilla control light, replicate 1": 2.13e6, "Renilla control light, replicate 2": 3.37e6, "Call": "inactive"}
{"Target gene": "Osi8", "dsRNA": "DRSC27462", "firefly reporter light, replicate 1": 2.50e5, "firefly reporter light, replicate 2": 2.79e5, "Renilla control light, replicate 1": 5.56e5, "Renilla control light, replicate 2": 6.46e5, "Call": "inactive"}
{"Target gene": "CG3703", "dsRNA": "DRSC18172", "firefly reporter light, replicate 1": 2.98e5, "firefly reporter light, replicate 2": 3.16e5, "Renilla control light, replicate 1": 4.62e6, "Renilla control light, replicate 2": 3.58e6, "Call": "inactive"}
{"Target gene": "CG3703", "dsRNA": "DRSC18173", "firefly reporter light, replicate 1": 3.64e5, "firefly reporter light, replicate 2": 4.95e5, "Renilla control light, replicate 1": 5.22e6, "Renilla control light, replicate 2": 2.95e6, "Call": "inactive"}
{"Target gene": "CG3703", "dsRNA": "DRSC18643", "firefly reporter light, replicate 1": 1.54e5, "firefly reporter light, replicate 2": 1.63e5, "Renilla control light, replicate 1": 3.49e6, "Renilla control light, replicate 2": 1.99e6, "Call": "inactive"}
{"Target gene": "Acp26Aa", "dsRNA": "DRSC01855", "firefly reporter light, replicate 1": 1.05e5, "firefly reporter light, replicate 2": 1.51e5, "Renilla control light, replicate 1": 8.78e5, "Renilla control light, replicate 2": 8.01e5, "Call": "inactive"}
{"Target gene": "Nrd1", "dsRNA": "DRSC19830", "firefly reporter light, replicate 1": 81655, "firefly reporter light, replicate 2": 80356, "Renilla control light, replicate 1": 6.63e5, "Renilla control light, replicate 2": 8.06e5, "Call": "inactive"}

Just “Renilla control light, replicate 2” (2 entries from above):
CG3703 [DRSC18172]	3.58e6
CG3703 [DRSC18173]	2.95e6
